Measured values reported in US10357486B2, “Treatment of cognitive impairment with PDE4 inhibitor” (Universiteit Maastricht, priority 2013, dated 2019).

Key:
[1] = test system: spatial memory in male C57BL/6NCrl mice; experiment: Object Location Task (OLT), 24-hour retention interval; type: in vivo; conditions: given 3 hours after T1, mean (SEM); for e2, total exploration time during T2: T2 after 24 h
Text: The objective of this study was to evaluate the cognitive improvement effects of Roflumilast on spatial memory employing Object Location Task (OLT) in male C57BL/6NCrl mice. Roflumilast was compared with data of the already established PDE4 inhibitor Rolipram in the same model.
Maintenance of Animals Twenty-four 7 month-old male C57BL/6NCrl mice (Charles River, L'Arbresle, France) were used (average body weights: 27.6 g). The animals were kept under a 12/12-hour light/dark cycle (lights on from 07.00 pm to 07.00 am) with free access to food and water. All testing was done between 09.00 am and maximally 06.00 pm.
Preparation of Compounds for Administration Both rolipram (Sigma-Aldrich St. Louis, USA; MW 275.34) and roflumilast (Biocrea, Radebeul, Germany; MW 403.21) were dissolved in dimethylsulfoxide (DMSO) and kept at 4 ° C.; this stock solution was used for further dilutions in 0.5% methylcellulose. Each of rolipram and roflumilast is used in form of its free base. All injected solutions consisted of 0.5% methylcellulose with a fixed DMSO percentages (1.2%) (vehicle).
Object Location Task Studies in Rodents For the Object Location Task (OLT), doses of 0.01 mg/kg, 0.03 mg/kg and 0.1 mg/kg of Rolipram or Roflumilast or vehicle were administered subcutaneously (s.c.). Based on previous findings, PDE4 inhibitor single administration was performed 3 hours after the first trial as this has an optimum effect on object memory performance. The injection volume was 5 μl/g.
The OLT apparatus consisted of a circular arena, 40 cm in diameter. Half of the 40 cm transparent polyvinyl chloride wall was covered from the outside with white paper. Two objects were placed symmetrically about 10 cm away from the wall on the separation line, between the transparent and covered side of the arena. Four different sets of objects were available: (1) a cone made of brass (maximal diameter 6 cm and total height 3.8 cm), (2) a transparent glass bottle (diameter 2.7 cm, height 8.5 cm) filled with sand and water, (3) a massive metal cube (2.5 cm×5 cm×7.5 cm) with two holes (diameter 1.5 cm), and (4) a massive aluminum cube with a tapering top (4.5 cm×4.5 cm×8.5 cm).
A testing session comprised two trials of 4 minutes. Before each trial, mice were placed in an empty Makrolon cage (incubation cage) for the same amount of time as the trial (4 min). During the first trial (T1), two identical objects were placed symmetrically about 10 cm away from the wall on the separation line between the transparent and covered side of the arena. After the first exploration period of 4 min, the mouse was put back in its home cage. Mice then received treatment at 3 hours post T1. Subsequently, after a predetermined delay interval (24h), the mouse was placed in the apparatus for the second trial of 4 min (T2). Two identical objects as in T1 were used; one object was placed in the previously used position, whereas the other was placed in a novel position. The novel position of the object could either be a fixed distance towards the front or a fixed distance towards the back of the arena for both objects. The times spent exploring each object during T1 and T2 were recorded manually using a personal computer. All objects and locations were used in a balanced manner to exclude possible object and/or location preferences. To avoid olfactory cues, the objects were thoroughly cleaned with 70% ethanol after each trial. The testing order of conditions was determined randomly.
Statistical Data Analysis The measurements reflected the time spent by the mice in exploring each object during T1 and T2. The time spent in exploring the two identical samples in T1 were represented by ‘a1’ and ‘a2’, respectively. The time spent in exploring the sample and the new object in T2 were represented by ‘a’ and ‘b’, respectively. From these exploration times the following variables were calculated: e1, e2, and d2 (Table 1). The d2 index is a relative measure of discrimination corrected for exploratory activity. […]

[2] = test system: scopolamine induced memory deficit in male Wistar rats; experiment: Object recognition task (ORT), scopolamine induced memory deficit; type: in vivo; conditions: mean (SEM); for e1 (exploration time T1): 30 min before T1, n 16; for e2 (exploration time T2): 1 h retention
Text: The objective of this study is to evaluate the efficacious dose range of roflumilast with regard to cognitive improvement effects by using scopolamine induced memory deficit on object memory performance in male Wistar rats. Memory acquisition processes are investigated using the object recognition test (ORT).
Maintenance of Animals: Sixteen 3-4 month old male Wistar rats (Charles River, Sulzfeld, Germany) were used for the study. All animals were housed individually in standard green line Tecniplast IVC cages on stardust bedding. The animals were housed on a reversed 12/12 h light/dark cycle (lights on from 07:00 pm to 07:00 am) and had free access to food and water. The rats were housed and tested in the same room. A radio, playing softly, provided background noise in the room. All testing was performed between 09:00 am and 06:00 pm.
Preparation of Compounds: Drugs were prepared daily, except as indicated otherwise. Roflumilast (Takeda, Konstanz, Germany, MW 403.21) was dissolved in 98% methylcellulose solution (0.5% methylcellulose) and 2% Tween 80. Roflumilast in doses of 0 (vehicle), 0.0001, 0.0003, 0.001, 0.003, 0.01 and 0.03 mg/kg was administered intraperitoneally (ip, injection volume 1 ml/kg). Scopolamine (in form of scopolamine hydrobromide) was dissolved in saline (0.9% NaCl). Scopolamine hydrobromide was administered intraperitoneally at a dose of 0.1 mg/kg (ip, injection volume 1 ml/kg). Scopolamine and roflumilast were administered 30 min before T1.
Object Recognition Task in Rats: The ORT was performed as described elsewhere (Ennaceur and Delaceur, 1988, Behav Brain Res, Vol 31, pp 47-59; Akkerman et al; 2012, Behav Brain Res, Vol 232, pp 335-347). The apparatus consisted of a circular arena, 83 cm in diameter. The back half of the 40 cm high wall was made of grey PVC and the front was made of transparent PVC. Fluorescent red tubes and a light bulb provided a constant illumination of about 20 lux on the floor of the apparatus. The light intensity was equal in the different parts of the apparatus.
Two objects were placed in symmetrical positions at the mid-line between the gray and transparent halves of the arena, about ten centimeters away from wall. Four different sets of objects were available: 1) a standard 1 L brown transparent glass bottle (diameter 10 cm, height 22 cm) filled with water, 2) a metal cube (10.0×5.0×7.5 cm) with two holes (diameter 1.9 cm), 3) a cone consisting of a gray PVC base (maximal diameter 18 cm) with a collar on top made of brass (total height 16 cm), and 4) an aluminium cube with a tapering top (13.0×8.0×8.0 cm). Objects were presented to the animals in a balanced manner to avoid object or place biases. Rats were unable to displace the objects.
A test session comprised two trials, each with durations of 3 min. During the learning trial (T1) the apparatus contains two identical objects (object al and a2). Rats were always introduced into the apparatus with their nose towards the transparent wall segment (i.e. facing outwards to the front of the arena). Subsequently, rats were put back in its home cage for a 1 h interval. After the retention interval, rats were put back into the arena for the […] (T2). In T2, the two objects from T1 were replaced by one identical copy (a3) and a different novel object (b). The times spent in exploring each object during T1 and T2 were recorded manually on a personal computer.
Exploration was defined in the following manner: directing the nose to the object at a distance of no more than 2 cm and/or touching the object with the nose. Sitting on the object was not considered as exploratory behavior. In order to avoid the presence of olfactory cues, the objects were thoroughly cleaned with a 70% ethanol solution before each trial.
Prior to compound testing, the animals were handled for 5 min on 2 consecutive days and allowed to explore the ORT arena, also for 5 min. […]

[3] = roflumilast 0.0001 mg/kg ip + scopolamine 0.1 mg/kg ip
[4] = roflumilast 0.0003 mg/kg ip + scopolamine 0.1 mg/kg ip
[5] = roflumilast 0.001 mg/kg ip + scopolamine 0.1 mg/kg ip
[6] = roflumilast 0.003 mg/kg ip + scopolamine 0.1 mg/kg ip
[7] = roflumilast 0.01 mg/kg ip + scopolamine 0.1 mg/kg ip
[8] = roflumilast 0.03 mg/kg ip + scopolamine 0.1 mg/kg ip
[9] = scopolamine 0.1 mg/kg ip + vehicle

| SMILES | e2, total exploration time during T2 ([1]; 0.01 mg/kg s.c.) | e1, total exploration time during T1 ([1]; 0.01 mg/kg s.c.) | e2, total exploration time during T2 ([1]; 0.03 mg/kg s.c.) | e1, total exploration time during T1 ([1]; 0.03 mg/kg s.c.) | e2, total exploration time during T2 ([1]; 0.1 mg/kg s.c.) | e1, total exploration time during T1 ([1]; 0.1 mg/kg s.c.) | e1 (exploration time T1) [2, 3] | e2 (exploration time T2) [2, 3] | e1 (exploration time T1) [2, 4] | e2 (exploration time T2) [2, 4] | e1 (exploration time T1) [2, 5] | e2 (exploration time T2) [2, 5] | e1 (exploration time T1) [2, 6] | e2 (exploration time T2) [2, 6] | e1 (exploration time T1) [2, 7] | e2 (exploration time T2) [2, 7] | e1 (exploration time T1) [2, 8] | e2 (exploration time T2) [2, 8] | e1 (exploration time T1) [2, 9] | e2 (exploration time T2) [2, 9] |
| --- | --- | --- | --- | --- | --- | --- | --- | --- | --- | --- | --- | --- | --- | --- | --- | --- | --- | --- | --- | --- |
| O=C(Nc1c(Cl)cncc1Cl)c1ccc(OC(F)F)c(OCC2CC2)c1 [roflumilast, N-(3,5-dichloropyridin-4-yl)-3-cyclopropylmethoxy-4-difluoromethoxybenzamide] | 14.13 (1.22) s | 15.95 (1.11) s | 16.13 (1.18) s | 15.62 (1.37) s | 13.73 (1.11) s | 17.51 (1.36) s | 24.18 (1.56) sec | 28.13 (2.17) sec | 19.40 (1.62) sec | 24.10 (1.88) sec | 19.95 (1.38) sec | 22.88 (2.14) sec | 22.38 (1.09) sec | 23.94 (1.28) sec | 22.54 (1.63) sec | 27.20 (1.72) sec | 20.44 (1.64) sec | 26.10 (2.06) sec | – | – |
| COc1ccc(C2CNC(=O)C2)cc1OC1CCCC1 (centres unmarked) [rolipram] | 12.99 (0.84) s | 15.58 (0.95) s | 13.56 (0.95) s | 15.45 (1.35) s | 12.29 (0.08) s | 15.82 (1.03) s | – | – | – | – | – | – | – | – | – | – | – | – | – | – |
| CN1[C@@H]2C[C@@H](OC(=O)[C@H](CO)c3ccccc3)C[C@H]1[C@@H]1O[C@@H]12 [scopolamine] | – | – | – | – | – | – | – | – | – | – | – | – | – | – | – | – | – | – | 20.99 (2.17) sec | 25.03 (2.18) sec |
